Patent US11866752B2, “Cysteine polysulfidation and mitochondrial bioenergetics regulated by cysteinyl-tRNA synthetase” (Bio-Xcelerator, Inc., priority 2018, dated 2024)
For at least one compound, name, drawing or mass did not settle the structure.

Experiments:
[1] = test system: mitochondrial ETC in HEK293T cells; experiment: Effect of suppression of ETC on metabolic profiles of CysSSH; type: cell-based, human
Method: Effect of suppression of ETC on metabolic profiles of CysSSH. The mito-chondrial ETC in HEK293T cells was inhibited either by a complex III inhibitor, antimycin A, or by elimination of mitochondrial DNA (mtDNA) induced by ethidium bromide. For the direct but partial ETC (complex III) inhibition, WT and CARS2 KO cells were treated with various concentrations of antimycin A for 1 h, followed by methanol extraction for measurement of CysSSH and its related sulfide derivatives by HPE-IAM labeling LC-ESI-MS/MS analysis as described earlier. To indirectly suppress all ETC components (complexes), mtDNA from WT and CARS2 KO HEK293T cells was eliminated specifically by treatment with ethidium bromide (50 ng/ml, 127 nM) for 12 days under standard cell culture conditions (37° C., humidified, 5% C02/95% air) with DMEM containing 10% FBS, 1% penicillin-streptomycin, sodium pyruvate (1 mM), nonessential amino acids (1%), and uridine (50 μg/ml), according to a previous method with a slight modifica-tion52. The cells without mtDNA were then subjected to HPE-IAM labeling LC-MS/MS analysis for persulfide metabolic profiling, similar to antimycin-treated cells. […] About the feature here, a paper, “S. FUJII, Persulfide synthases that are functionally coupled with translation mediate sulfur respiration in mammalian cells, British Journal of Pharmacology, 176, p 607-615, 2019,” is incorporated by reference. […] The quantity of each sulfide produced from CARS2 in the cells was determined by subtracting the amount of each sulfide in CARS2 KO HEK293T cells from that in the WT cells, after quantification of each metabolite via HPE-IAM labeling LC-MS/MS analysis. Changes in the amounts of CysSSH (ACysSSH) and HS— (AHS-) induced by complex III inhibition by antimycin A or by mtDNA elimination in WT and CARS2 KO HEK293T cells were then calculated.

HEK293T cells = experiment: MitoTracker Red staining for mitochondrial morphology; type: cell-based, human; conditions: HEK293T cells with or without ethidium bromide treatment
[2] = HEK293T cells, HPE-IAM labeling LC-MS/MS

In the case of CC[n+]1c(-c2ccccc2)c2cc(N)ccc2c2ccc(N)cc21 [ethidium bromide], the “Change in CysSSH” value [1, 2] is reported as “significant increase”, the “Change in HS- production” value [1, 2] is reported as “reduction” and the “Mitochondrial cytochrome c oxidase subunit 1 (MTCO1) by western blotting” value ([1]; ethidium bromide 50 ng/ml, 12 days) is reported as “substantial suppression”. The Morphology of mitochondria (HEK293T cells) was “no appreciable altered morphology”.
